From the supplement of paper PMC10849652
The list shows a part of the results.

The chains behind the UniProt entries cited, without tags or fusion partners. Where a name states a change or a piece, a line headed by the entry shows the natural chain unless it says otherwise.
UniProt Q5JSL3: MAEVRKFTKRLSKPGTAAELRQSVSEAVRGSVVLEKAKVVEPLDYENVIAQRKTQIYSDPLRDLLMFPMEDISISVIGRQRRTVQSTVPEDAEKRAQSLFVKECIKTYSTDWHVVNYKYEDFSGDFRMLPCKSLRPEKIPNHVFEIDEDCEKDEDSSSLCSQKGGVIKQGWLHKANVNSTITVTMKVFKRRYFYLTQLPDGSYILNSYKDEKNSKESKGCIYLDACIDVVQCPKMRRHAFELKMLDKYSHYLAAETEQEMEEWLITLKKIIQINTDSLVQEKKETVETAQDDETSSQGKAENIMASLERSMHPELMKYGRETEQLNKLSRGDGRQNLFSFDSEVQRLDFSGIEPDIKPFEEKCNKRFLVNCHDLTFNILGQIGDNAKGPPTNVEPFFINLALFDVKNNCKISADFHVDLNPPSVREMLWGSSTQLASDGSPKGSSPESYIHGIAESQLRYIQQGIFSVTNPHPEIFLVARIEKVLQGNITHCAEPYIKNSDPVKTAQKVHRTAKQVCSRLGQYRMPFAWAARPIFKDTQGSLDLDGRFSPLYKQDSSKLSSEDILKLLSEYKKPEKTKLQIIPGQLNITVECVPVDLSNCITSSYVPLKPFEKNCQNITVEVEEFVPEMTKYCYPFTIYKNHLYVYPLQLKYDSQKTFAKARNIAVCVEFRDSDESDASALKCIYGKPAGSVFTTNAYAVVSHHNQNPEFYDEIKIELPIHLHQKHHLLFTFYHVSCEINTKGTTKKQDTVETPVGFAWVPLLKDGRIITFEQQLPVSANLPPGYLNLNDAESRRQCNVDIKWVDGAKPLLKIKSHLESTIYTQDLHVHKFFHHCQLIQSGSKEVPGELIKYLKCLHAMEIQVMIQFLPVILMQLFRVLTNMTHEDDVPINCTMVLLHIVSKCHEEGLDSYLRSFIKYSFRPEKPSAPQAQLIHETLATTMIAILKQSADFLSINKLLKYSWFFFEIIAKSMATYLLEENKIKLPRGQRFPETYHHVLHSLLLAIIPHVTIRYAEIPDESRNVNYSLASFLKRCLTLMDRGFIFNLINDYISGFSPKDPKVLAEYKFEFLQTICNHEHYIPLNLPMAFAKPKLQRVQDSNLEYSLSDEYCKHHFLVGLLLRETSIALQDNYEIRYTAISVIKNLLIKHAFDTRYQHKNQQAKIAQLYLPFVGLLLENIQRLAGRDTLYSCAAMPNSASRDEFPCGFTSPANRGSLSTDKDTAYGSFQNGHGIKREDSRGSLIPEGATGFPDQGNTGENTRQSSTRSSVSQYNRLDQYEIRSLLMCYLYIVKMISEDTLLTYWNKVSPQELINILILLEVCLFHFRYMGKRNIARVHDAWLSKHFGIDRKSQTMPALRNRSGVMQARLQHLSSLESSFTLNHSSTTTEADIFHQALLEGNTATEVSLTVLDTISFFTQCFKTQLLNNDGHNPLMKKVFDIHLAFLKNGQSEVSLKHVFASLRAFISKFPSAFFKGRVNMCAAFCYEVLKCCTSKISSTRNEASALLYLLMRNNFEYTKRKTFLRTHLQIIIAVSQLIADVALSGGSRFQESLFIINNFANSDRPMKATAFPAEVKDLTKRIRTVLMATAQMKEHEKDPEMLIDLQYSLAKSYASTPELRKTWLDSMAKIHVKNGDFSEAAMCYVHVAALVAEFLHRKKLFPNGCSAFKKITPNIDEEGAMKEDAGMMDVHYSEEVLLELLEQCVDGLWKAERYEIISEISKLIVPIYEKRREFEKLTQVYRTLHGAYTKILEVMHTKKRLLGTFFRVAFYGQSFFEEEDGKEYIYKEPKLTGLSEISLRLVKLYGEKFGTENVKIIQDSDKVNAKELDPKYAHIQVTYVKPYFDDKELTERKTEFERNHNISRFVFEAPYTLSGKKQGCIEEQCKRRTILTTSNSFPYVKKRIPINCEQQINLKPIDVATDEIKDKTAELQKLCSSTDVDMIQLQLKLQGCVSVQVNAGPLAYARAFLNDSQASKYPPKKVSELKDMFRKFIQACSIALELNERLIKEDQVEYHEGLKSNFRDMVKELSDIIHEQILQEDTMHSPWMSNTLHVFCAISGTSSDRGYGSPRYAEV
UniProt P36957: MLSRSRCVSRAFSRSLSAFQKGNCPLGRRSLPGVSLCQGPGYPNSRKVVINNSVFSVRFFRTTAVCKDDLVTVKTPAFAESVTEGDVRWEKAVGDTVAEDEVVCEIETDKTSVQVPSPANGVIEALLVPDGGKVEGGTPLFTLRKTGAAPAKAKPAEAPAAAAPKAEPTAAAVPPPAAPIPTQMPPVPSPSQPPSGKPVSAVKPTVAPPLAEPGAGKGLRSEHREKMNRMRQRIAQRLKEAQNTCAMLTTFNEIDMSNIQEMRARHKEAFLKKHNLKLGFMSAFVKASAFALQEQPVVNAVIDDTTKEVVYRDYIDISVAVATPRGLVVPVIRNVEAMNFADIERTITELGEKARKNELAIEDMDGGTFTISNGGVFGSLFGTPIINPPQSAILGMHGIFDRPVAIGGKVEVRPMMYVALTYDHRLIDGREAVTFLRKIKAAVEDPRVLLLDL
UniProt Q8TF46, whole entry, looked up: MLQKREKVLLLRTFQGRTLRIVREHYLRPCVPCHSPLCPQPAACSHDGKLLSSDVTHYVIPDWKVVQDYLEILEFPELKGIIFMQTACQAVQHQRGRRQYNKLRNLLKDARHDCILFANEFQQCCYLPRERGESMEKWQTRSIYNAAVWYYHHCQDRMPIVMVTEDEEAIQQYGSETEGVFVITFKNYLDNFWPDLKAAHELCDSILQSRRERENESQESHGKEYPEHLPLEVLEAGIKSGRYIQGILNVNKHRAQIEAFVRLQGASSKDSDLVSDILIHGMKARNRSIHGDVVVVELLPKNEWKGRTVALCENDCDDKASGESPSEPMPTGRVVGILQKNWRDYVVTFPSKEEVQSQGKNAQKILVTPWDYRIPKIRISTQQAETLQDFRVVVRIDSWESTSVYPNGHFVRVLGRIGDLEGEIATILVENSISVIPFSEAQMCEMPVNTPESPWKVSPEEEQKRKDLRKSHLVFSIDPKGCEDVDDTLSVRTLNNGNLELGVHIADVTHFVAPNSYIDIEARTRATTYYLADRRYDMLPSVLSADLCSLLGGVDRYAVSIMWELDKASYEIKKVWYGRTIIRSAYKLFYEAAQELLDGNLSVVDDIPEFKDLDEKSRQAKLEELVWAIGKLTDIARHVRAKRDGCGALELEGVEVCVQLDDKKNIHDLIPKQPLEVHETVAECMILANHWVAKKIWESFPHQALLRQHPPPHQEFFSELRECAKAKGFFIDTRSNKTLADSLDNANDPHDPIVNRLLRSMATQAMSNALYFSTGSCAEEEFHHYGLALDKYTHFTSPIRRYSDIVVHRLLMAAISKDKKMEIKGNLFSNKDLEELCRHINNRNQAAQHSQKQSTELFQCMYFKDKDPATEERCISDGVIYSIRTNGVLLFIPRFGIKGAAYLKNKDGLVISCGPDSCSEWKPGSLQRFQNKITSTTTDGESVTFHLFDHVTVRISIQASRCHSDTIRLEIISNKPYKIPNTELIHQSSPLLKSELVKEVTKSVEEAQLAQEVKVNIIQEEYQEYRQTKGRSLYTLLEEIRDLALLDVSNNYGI
UniProt Q14689: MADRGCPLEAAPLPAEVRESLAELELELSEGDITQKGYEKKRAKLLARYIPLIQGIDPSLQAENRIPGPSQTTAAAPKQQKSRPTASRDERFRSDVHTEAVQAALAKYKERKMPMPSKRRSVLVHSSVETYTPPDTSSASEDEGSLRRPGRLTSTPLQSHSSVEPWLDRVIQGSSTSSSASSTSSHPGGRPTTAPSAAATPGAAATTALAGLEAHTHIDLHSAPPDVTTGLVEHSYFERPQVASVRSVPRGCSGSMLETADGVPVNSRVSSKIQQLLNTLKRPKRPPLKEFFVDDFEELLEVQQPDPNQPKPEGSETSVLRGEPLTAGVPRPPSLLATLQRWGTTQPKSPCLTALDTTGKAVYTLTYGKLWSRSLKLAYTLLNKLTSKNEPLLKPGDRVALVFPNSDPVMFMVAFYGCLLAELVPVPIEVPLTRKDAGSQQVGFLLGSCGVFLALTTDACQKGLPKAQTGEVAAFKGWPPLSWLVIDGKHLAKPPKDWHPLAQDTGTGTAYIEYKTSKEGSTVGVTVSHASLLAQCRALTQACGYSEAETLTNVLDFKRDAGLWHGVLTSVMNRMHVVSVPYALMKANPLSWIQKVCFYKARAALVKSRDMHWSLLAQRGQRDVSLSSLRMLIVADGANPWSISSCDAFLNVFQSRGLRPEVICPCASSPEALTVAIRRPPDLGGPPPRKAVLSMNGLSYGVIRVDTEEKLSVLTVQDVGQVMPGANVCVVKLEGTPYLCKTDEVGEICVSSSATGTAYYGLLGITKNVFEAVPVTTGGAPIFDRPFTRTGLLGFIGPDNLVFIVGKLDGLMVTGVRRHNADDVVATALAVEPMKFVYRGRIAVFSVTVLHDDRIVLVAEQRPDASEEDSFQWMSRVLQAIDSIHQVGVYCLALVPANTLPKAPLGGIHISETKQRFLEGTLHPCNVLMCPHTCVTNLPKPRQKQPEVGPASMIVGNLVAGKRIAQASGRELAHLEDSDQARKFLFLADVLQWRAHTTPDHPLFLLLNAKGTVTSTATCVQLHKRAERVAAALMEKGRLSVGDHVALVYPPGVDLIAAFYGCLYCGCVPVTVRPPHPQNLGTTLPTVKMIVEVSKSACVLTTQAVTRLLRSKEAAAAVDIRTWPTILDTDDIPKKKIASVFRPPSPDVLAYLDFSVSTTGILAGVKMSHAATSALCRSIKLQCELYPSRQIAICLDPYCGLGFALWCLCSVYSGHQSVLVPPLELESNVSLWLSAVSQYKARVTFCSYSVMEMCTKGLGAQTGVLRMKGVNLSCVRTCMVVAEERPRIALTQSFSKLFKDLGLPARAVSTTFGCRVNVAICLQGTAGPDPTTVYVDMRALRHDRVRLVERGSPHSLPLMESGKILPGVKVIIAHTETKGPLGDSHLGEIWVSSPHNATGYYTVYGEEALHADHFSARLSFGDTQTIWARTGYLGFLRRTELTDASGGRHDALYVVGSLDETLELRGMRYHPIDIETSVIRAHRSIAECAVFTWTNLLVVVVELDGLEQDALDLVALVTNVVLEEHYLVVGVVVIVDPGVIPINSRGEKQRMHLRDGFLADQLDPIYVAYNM
UniProt P10515, whole entry, looked up: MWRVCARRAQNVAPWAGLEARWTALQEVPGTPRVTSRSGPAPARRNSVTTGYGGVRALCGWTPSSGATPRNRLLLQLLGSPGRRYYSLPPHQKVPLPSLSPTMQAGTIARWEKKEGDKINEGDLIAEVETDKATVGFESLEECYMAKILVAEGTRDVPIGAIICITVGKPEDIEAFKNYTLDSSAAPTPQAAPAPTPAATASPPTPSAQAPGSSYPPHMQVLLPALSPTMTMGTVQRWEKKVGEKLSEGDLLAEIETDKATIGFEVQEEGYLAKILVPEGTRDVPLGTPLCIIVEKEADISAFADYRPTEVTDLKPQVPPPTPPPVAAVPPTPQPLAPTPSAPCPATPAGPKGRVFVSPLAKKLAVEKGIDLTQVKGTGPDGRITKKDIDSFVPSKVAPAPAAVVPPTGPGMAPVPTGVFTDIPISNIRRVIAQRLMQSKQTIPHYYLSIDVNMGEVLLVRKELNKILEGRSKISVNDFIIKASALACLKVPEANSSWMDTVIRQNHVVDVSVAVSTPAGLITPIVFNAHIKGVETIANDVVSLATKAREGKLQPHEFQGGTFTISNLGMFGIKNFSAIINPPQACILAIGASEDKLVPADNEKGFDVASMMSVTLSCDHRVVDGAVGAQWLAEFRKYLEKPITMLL
UniProt P00374: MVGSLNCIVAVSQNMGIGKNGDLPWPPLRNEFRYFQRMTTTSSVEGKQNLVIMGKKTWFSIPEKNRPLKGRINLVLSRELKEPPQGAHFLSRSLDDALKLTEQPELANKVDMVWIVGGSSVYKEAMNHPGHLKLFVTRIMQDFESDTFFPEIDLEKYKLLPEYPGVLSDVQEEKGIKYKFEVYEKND
UniProt O75907: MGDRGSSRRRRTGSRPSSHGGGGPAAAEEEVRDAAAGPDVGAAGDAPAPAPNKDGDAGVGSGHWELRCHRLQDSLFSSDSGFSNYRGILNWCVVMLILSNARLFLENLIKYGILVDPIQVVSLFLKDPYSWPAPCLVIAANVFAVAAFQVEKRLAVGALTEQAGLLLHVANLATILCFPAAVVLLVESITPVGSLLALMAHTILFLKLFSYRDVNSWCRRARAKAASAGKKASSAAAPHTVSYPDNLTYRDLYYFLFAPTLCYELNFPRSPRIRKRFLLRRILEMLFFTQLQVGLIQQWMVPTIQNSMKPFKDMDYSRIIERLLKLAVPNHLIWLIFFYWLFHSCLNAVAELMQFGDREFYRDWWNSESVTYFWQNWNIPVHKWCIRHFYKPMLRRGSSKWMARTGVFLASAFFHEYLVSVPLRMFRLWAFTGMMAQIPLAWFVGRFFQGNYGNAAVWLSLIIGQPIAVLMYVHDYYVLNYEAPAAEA

What was measured:
Assay in all cases: log2 fold change, soluble protein after heating vs DMSO (PISA); higher = thermal stabilisation; K562 lysate, 10 uM; active = over 0.2 and 3.5 SD of the protein, either way, in both replicates (recomputed)
erlotinib = compound: C#Cc1cccc(Nc2ncnc3cc(OCCOC)c(OCCOC)cc23)c1 [erlotinib]
In short: (§1)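 Log-two fold change in thermal stability relative to solvent controls is reported from duplicates. For each sample, crude K562 extract from dounce-homogenised pellets in PBS pH 7.4 with 1 mM MgCl2, at 1 mg/mL protein, was treated with 10 μM compound for 30 min. Aliquots heated for 3 min across 48°C-58°C were pooled, brought to 0.5% NP-40 at 4°C and cleared at 21,000xg for 90 min. The supernatant was quantified by TMTpro 16plex LC-MS/MS with channel sums equalised.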

[1] = compound: C/C(=N\NC(=O)C1=CC(=CC=C1)S(=O)(=O)N2CCOCC2)/C3=C(C=CC(=C3)Cl)O
In short: as §1

[2] = compound: C1=CC(=CC=C1C2=NC3=C(N2)C=C(C=C3)C(=O)N)OC4=CC=C(C=C4)Cl
In short: as §1

[3] = compound: C1=CC2=C(C=CC(=C2)/C=C\3/C(=O)NC(=NCC4=CC=CS4)S3)N=C1
In short: as §1

[4] = compound: C1=CC2=NC=CN=C2C=C1/C=C/3\C(=O)NC(=O)S3
In short: as §1

[5] = compound: C1=CC=C(C=C1)C2=NC(=C(N2)C3=CC=NC=C3)C4=CC(=C(C=C4)Cl)O
In short: as §1

[6] = compound: C1=CC=C2C(=C1)C3=NNC4=CC=CC(=C43)C2=O
In short: as §1

[7] = compound: C1CCN(C1)C(=O)NC2=CC=CC(=C2)NC3=NC=C(C(=N3)NCCC4=CN=CN4)Br
In short: as §1

[8] = compound: C1CN(CCC1(CC2=CC=C(C=C2)Cl)N)C3=NC=NC4=C3C=CN4
In short: as §1

IRAK-1-4 Inhibitor I = compound: C1COCCN1CCN2C3=CC=CC=C3N=C2NC(=O)C4=CC(=CC=C4)[N+](=O)[O-] [IRAK-1-4 Inhibitor I]
In short: as §1

ibrutinib = compound: C=CC(=O)N1CCC[C@@H](n2nc(-c3ccc(Oc4ccccc4)cc3)c3c(N)ncnc32)C1 [ibrutinib]
In short: as §1

[9] = compound: CC(=O)c1cnc2ccc(-c3cc(Cl)c(O)c(Cl)c3)nc2c1N[C@H]1CC[C@H](CN(C)C)CC1
In short: as §1

ralimetinib = compound: CC(C)(C)Cn1c(N)nc2ccc(-c3[nH]c(C(C)(C)C)nc3-c3ccc(F)cc3)nc21 [ralimetinib]
In short: as §1

[10] = compound: CC(C)(O)CC(=O)NCCn1ccc2ncnc(Nc3ccc(Oc4cccc(C(F)(F)F)c4)c(Cl)c3)c21
In short: as §1

[11] = compound: CC(C)C1=C2N=C(C=C(N2N=C1)NCC3=CC=CC=C3)NCCCCCCN
In short: as §1

[12] = compound: CC1=C(C(CC(=O)N1)C2=CC=C(C=C2)C(F)(F)F)C(=O)NC3=C(C=C4C(=C3)C=NN4)F
In short: as §1

[13] = compound: CC1=C(C2=C(C=C1)C(=O)C3=CC=CC=C3N2CCCN)C
In short: as §1

[14] = compound: CC1=C(C=C(C=C1)NC(=O)C2=CC(=CC=C2)C(C)(C)C#N)NC3=CC4=C(C=C3)N=CN(C4=O)C
In short: as §1

[15] = compound: CC1=C(C=C(C=C1)NC(=O)C2=CC(=CC=C2)N(C)C)NC(=O)C3=CC=C(C=C3)O
In short: as §1

[16] = compound: CC1=CC=C(C=C1)SC2=C3C=C(SC3=CN=C2)C(=O)N
In short: as §1

Measured: log2 fold change

DOCK11 (UniProt Q5JSL3)
inactive: erlotinib -0.005 | [1] 0.012 | [2] 0.009 | [3] 0.036 | [4] 0.012 | [5] -0.048 | [6] -0.045 | [7] -0.028 | [8] 0.003 | IRAK-1-4 Inhibitor I 0.014 | ibrutinib -0.01 | [9] 0.004 | ralimetinib 0.024 | [10] -0.049 | [11] 0.029 | [12] -0.019 | [13] -0.002 | [14] 0.032 | [15] 0.009 | [16] 0.022

DLST (UniProt P36957)
inactive: erlotinib 0 | [1] -0.019 | [2] 0.027 | [3] 0.021 | [4] -0.011 | [5] -0.012 | [6] -0.056 | [7] 0.004 | [8] 0 | IRAK-1-4 Inhibitor I 0.007 | ibrutinib -0.002 | [9] -0.015 | ralimetinib -0.021 | [10] -0.027 | [11] -0.001 | [12] 0.021 | [13] -0.05 | [14] 0 | [15] 0.004 | [16] -0.015

DMD (UniProt P11532)
inactive: erlotinib -0.012 | [1] 0.013 | [2] 0.027 | [3] -0.015 | [4] -0.015 | [5] -0.008 | [6] 0.004 | [7] -0.006 | [8] -0.001 | IRAK-1-4 Inhibitor I 0.017 | ibrutinib 0.038 | [9] 0.003 | ralimetinib 0.018 | [10] -0.022 | [11] 0.002 | [12] 0.013 | [13] 0.016 | [14] -0.004 | [15] -0.01 | [16] -0.006

DHX9 (UniProt Q08211)
inactive: erlotinib 0.004 | [1] -0.034 | [2] -0.02 | [3] 0.007 | [4] 0.002 | [5] 0.018 | [6] -0.005 | [7] 0.009 | [8] 0.001 | IRAK-1-4 Inhibitor I -0.006 | ibrutinib -0.001 | [9] -0.017 | ralimetinib 0.018 | [10] 0.006 | [11] 0.003 | [12] -0.004 | [13] -0.033 | [14] 0.009 | [15] 0.032 | [16] 0.017

DICER1 (UniProt Q9UPY3)
inactive: erlotinib 0.013 | [1] -0.088 | [2] -0.056 | [3] -0.023 | [4] -0.027 | [5] 0.03 | [6] -0.025 | [7] -0.064 | [8] -0.042 | IRAK-1-4 Inhibitor I -0.016 | ibrutinib -0.011 | [9] 0.037 | ralimetinib 0.019 | [10] -0.055 | [11] 0.012 | [12] 0.044 | [13] 0.003 | [14] 0.018 | [15] 0.013 | [16] 0

DIS3L (UniProt Q8TF46)
inactive: erlotinib -0.014 | [1] -0.049 | [2] -0.065 | [3] 0.052 | [4] 0.283 | [5] 0.002 | [6] -0.004 | [7] -0.015 | [8] 0.008 | IRAK-1-4 Inhibitor I 0.041 | ibrutinib -0.018 | [9] -0.048 | ralimetinib 0.023 | [10] 0.054 | [11] -0.008 | [12] 0.023 | [13] -0.083 | [14] 0.066 | [15] 0.041 | [16] 0.044

DIP2A (UniProt Q14689)
inactive: erlotinib 0.058 | [1] 0.008 | [2] -0.001 | [3] -0.031 | [4] -0.038 | [5] -0.035 | [6] -0.027 | [7] 0.072 | [8] 0.005 | IRAK-1-4 Inhibitor I 0.071 | ibrutinib 0.005 | [9] -0.006 | ralimetinib -0.003 | [10] -0.072 | [11] -0.06 | [12] 0.024 | [13] -0.06 | [14] -0.057 | [15] -0.005 | [16] 0.009

DLAT (UniProt P10515)
inactive: erlotinib -0.016 | [1] 0.024 | [2] -0.029 | [3] -0.005 | [4] -0.01 | [5] -0.027 | [6] -0.001 | [7] 0.018 | [8] 0.003 | IRAK-1-4 Inhibitor I 0.013 | ibrutinib 0.006 | [9] -0.013 | ralimetinib 0.018 | [10] -0.027 | [11] 0.003 | [12] -0.044 | [13] 0.005 | [14] 0.099 | [15] -0.023 | [16] -0.011

DNAJC13 (UniProt O75165)
inactive: erlotinib -0.012 | [1] 0.028 | [2] -0.009 | [3] -0.013 | [4] -0.031 | [5] -0.013 | [6] -0.031 | [7] -0.026 | [8] 0.036 | IRAK-1-4 Inhibitor I -0.01 | ibrutinib -0.012 | [9] -0.01 | ralimetinib -0.003 | [10] -0.034 | [11] -0.063 | [12] 0.01 | [13] -0.02 | [14] 0.013 | [15] -0.002 | [16] -0.001

Two entries picked at random from the list so far:
DNAJC13 (UniProt O75165)
inactive: erlotinib -0.012 | [1] 0.028 | [2] -0.009 | [3] -0.013 | [4] -0.031 | [5] -0.013 | [6] -0.031 | [7] -0.026 | [8] 0.036 | IRAK-1-4 Inhibitor I -0.01 | ibrutinib -0.012 | [9] -0.01 | ralimetinib -0.003 | [10] -0.034 | [11] -0.063 | [12] 0.01 | [13] -0.02 | [14] 0.013 | [15] -0.002 | [16] -0.001

DIP2A (UniProt Q14689)
inactive: erlotinib 0.058 | [1] 0.008 | [2] -0.001 | [3] -0.031 | [4] -0.038 | [5] -0.035 | [6] -0.027 | [7] 0.072 | [8] 0.005 | IRAK-1-4 Inhibitor I 0.071 | ibrutinib 0.005 | [9] -0.006 | ralimetinib -0.003 | [10] -0.072 | [11] -0.06 | [12] 0.024 | [13] -0.06 | [14] -0.057 | [15] -0.005 | [16] 0.009

Later entries.

DHCR7 (UniProt Q9UBM7)
inactive: erlotinib -0.051 | [1] 0.081 | [2] -0.153 | [3] -0.016 | [4] 0.033 | [5] -0.024 | [6] -0.019 | [7] -0.058 | [8] 0.075 | IRAK-1-4 Inhibitor I 0.007 | ibrutinib -0.026 | [9] 0.016 | ralimetinib 0.071 | [10] -0.042 | [11] -0.018 | [12] 0.01 | [13] -0.007 | [14] -0.017 | [15] -0.011 | [16] -0.002

DNAJC11 (UniProt Q9NVH1)
inactive: erlotinib -0.008 | [1] -0.002 | [2] -0.055 | [3] 0.01 | [4] 0.021 | [5] -0.021 | [6] -0.041 | [7] 0.007 | [8] 0.024 | IRAK-1-4 Inhibitor I -0.021 | ibrutinib -0.009 | [9] 0.008 | ralimetinib 0.028 | [10] -0.038 | [11] -0.031 | [12] -0.008 | [13] 0.031 | [14] -0.032 | [15] 0.001 | [16] 0.021

DHRS2 (UniProt Q13268)
inactive: erlotinib -0.056 | [1] 0.099 | [2] 0.027 | [3] 0.04 | [4] -0.04 | [5] 0.009 | [6] 0.013 | [7] 0.002 | [8] 0.013 | IRAK-1-4 Inhibitor I 0.002 | ibrutinib 0.026 | [9] 0.025 | ralimetinib 0.043 | [10] -0.003 | [11] -0.017 | [12] -0.003 | [13] -0.003 | [14] -0.041 | [15] 0.006 | [16] 0.011

DHFR (UniProt P00374)
inactive: erlotinib 0.031 | [1] 0.046 | [2] -0.023 | [3] -0.019 | [4] 0.045 | [5] 0.025 | [6] -0.01 | [7] 0.034 | [8] 0.019 | IRAK-1-4 Inhibitor I -0.055 | ibrutinib -0.013 | [9] 0.155 | ralimetinib -0.058 | [10] 0.016 | [11] 0.024 | [12] -0.018 | [13] -0.013 | [14] -0.029 | [15] 0.025 | [16] 0.033

DGAT1 (UniProt O75907)
inactive: erlotinib -0.06 | [1] 0.06 | [2] -0.137 | [3] -0.079 | [4] 0.055 | [5] 0.05 | [6] 0.009 | [7] 0.013 | [8] 0.049 | IRAK-1-4 Inhibitor I -0.033 | ibrutinib 0.12 | [9] -0.041 | ralimetinib 0.075 | [10] -0.048 | [11] -0.017 | [12] -0.341 | [13] -0.101 | [14] -0.008 | [15] 0.044 | [16] 0.177

DIS3L2 (UniProt Q8IYB7)
inactive: erlotinib 0.004 | [1] 0.057 | [2] -0.039 | [3] -0.055 | [4] -0.002 | [5] -0.007 | [6] 0.013 | [7] -0.013 | [8] -0.023 | IRAK-1-4 Inhibitor I -0.048 | ibrutinib 0.03 | [9] 0.006 | ralimetinib 0.089 | [10] 0.025 | [11] 0 | [12] -0.01 | [13] 0.019 | [14] -0.049 | [15] -0.025 | [16] 0.014

DNAJC6 isoform 2 (UniProt O75061)
inactive: erlotinib 0 | [1] -0.152 | [2] 0.027 | [3] 0.002 | [4] -0.038 | [5] 0.013 | [6] 0.007 | [7] -0.064 | [8] 0.014 | IRAK-1-4 Inhibitor I -0.004 | ibrutinib 0.031 | [9] -0.033 | ralimetinib 0.015 | [10] -0.016 | [11] 0.009 | [12] -0.024 | [13] 0.011 | [14] 0.044 | [15] -0.048 | [16] -0.011
